Results are given in words; binding and its absence hold for the method and conditions named. Binding seen in cells or lysates may run through a third protein. Some entries that bind do so weakly or less than the wild type.

Sequences of proteins named here, by UniProt entry; tags and fusion partners are left off.
UniProt Q15910: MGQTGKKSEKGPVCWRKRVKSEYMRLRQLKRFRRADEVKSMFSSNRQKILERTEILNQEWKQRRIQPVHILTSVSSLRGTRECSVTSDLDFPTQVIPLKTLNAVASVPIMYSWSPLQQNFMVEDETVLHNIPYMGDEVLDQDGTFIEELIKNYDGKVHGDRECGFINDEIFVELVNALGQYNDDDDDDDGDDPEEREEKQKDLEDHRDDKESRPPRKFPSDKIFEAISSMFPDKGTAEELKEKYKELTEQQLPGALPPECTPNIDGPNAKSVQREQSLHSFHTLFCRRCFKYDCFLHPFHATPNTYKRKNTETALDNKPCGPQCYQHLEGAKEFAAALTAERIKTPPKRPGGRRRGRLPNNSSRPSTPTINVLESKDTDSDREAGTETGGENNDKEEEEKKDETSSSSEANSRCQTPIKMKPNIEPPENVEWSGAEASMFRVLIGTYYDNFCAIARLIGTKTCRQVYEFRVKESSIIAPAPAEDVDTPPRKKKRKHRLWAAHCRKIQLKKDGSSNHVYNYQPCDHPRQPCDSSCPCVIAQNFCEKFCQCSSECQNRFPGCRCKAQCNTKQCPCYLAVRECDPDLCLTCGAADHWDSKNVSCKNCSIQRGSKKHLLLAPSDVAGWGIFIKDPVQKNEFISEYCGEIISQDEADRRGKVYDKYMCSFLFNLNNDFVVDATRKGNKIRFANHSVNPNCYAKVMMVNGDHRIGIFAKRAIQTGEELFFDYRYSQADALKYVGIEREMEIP
UniProt O75530: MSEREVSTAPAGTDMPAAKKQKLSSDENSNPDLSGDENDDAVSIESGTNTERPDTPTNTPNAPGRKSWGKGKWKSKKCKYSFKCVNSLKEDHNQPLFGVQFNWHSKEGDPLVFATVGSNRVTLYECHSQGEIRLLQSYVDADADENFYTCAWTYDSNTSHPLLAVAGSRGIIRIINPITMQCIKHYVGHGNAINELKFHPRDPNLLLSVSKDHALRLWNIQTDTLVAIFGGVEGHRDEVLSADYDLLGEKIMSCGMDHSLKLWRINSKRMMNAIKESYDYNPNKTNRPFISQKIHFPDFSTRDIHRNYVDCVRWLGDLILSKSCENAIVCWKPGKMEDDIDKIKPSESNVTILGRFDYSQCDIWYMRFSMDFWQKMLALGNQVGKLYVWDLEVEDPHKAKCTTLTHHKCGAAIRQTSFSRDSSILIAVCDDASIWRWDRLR
UniProt Q6PIY5: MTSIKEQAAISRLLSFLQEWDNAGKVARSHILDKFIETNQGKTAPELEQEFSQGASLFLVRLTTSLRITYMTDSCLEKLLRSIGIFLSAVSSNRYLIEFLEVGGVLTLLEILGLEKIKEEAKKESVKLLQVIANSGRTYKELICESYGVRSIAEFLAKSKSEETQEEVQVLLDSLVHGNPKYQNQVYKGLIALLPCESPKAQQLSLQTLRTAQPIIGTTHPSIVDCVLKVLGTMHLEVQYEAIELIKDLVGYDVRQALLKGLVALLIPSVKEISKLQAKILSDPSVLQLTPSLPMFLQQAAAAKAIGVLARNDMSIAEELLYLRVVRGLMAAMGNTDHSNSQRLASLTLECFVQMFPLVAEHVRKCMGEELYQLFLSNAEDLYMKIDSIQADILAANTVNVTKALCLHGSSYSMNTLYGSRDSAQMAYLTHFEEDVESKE

The target in assay [1] is enhancer of zeste homolog 2 (EZH2) (human (endogenous in MOLM14 and Kasumi-1)) (UniProt Q15910). Briefly: co-IP; endogenous proteins from MOLM14 and Kasumi-1 cell extracts; EZH2 or EED antibody on protein G, incubated with pre-cleared lysate in RIPA buffer overnight at 4C, washed twice with cold PBS; western blot with EZH2, EED and ARMH1 antibodies. Background: A western blot detects proteins with antibodies after separation by electrophoresis.

For assay [2], the target named is Embryonic Ectoderm Development (EED) (human (endogenous in MOLM14 and Kasumi-1)) (UniProt O75530). Described as above.

For the substance “Armadillo-like helical domain containing protein 1 (ARMH1) (from UniProt Q6PIY5 1-440)”, the binding entry in assay [1] and in assay [2] was “binds” throughout.

For the origin of these results see publication PMC11655347.
